No constants are given. Whether binding was seen depends on the method and setting. Binding seen in cells or lysates may run through a third protein. Some entries that bind do so weakly or less than the wild type. For part of these data: Sequences can lack the tags named with a protein. Blank lines part the entries; values can stand above or below the binder they belong to.
Columns and labels:
[1] = molecular target: endogenous IP3R1 (inositol 1,4,5-triphosphate receptor type 1) in MDA-MB-231 cells (human) (UniProt Q14643); assay: proximity ligation assay (PLA) on fixed MDA-MB-231 cells
[2] = molecular target: T1, HA-Nrh (human Bcl-2 L10/Nrh protein tagged with HA) (human) (UniProt Q9HD36); assay: co-immunoprecipitation with anti-HA antibody
T1 sequence (looked up): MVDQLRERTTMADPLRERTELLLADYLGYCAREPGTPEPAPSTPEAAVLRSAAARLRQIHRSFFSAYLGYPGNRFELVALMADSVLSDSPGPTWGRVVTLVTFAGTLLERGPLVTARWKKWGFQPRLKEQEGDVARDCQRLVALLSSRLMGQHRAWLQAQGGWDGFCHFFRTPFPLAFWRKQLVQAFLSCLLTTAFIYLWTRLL

By UniProt entry, the sequences of proteins in these tests, tags left out. Where a name states a change or a piece, a line headed by the entry shows the natural chain unless it says otherwise. Chains listed by the source or under a name are the forms on record and can include a tag or linker.
UniProt Q14643: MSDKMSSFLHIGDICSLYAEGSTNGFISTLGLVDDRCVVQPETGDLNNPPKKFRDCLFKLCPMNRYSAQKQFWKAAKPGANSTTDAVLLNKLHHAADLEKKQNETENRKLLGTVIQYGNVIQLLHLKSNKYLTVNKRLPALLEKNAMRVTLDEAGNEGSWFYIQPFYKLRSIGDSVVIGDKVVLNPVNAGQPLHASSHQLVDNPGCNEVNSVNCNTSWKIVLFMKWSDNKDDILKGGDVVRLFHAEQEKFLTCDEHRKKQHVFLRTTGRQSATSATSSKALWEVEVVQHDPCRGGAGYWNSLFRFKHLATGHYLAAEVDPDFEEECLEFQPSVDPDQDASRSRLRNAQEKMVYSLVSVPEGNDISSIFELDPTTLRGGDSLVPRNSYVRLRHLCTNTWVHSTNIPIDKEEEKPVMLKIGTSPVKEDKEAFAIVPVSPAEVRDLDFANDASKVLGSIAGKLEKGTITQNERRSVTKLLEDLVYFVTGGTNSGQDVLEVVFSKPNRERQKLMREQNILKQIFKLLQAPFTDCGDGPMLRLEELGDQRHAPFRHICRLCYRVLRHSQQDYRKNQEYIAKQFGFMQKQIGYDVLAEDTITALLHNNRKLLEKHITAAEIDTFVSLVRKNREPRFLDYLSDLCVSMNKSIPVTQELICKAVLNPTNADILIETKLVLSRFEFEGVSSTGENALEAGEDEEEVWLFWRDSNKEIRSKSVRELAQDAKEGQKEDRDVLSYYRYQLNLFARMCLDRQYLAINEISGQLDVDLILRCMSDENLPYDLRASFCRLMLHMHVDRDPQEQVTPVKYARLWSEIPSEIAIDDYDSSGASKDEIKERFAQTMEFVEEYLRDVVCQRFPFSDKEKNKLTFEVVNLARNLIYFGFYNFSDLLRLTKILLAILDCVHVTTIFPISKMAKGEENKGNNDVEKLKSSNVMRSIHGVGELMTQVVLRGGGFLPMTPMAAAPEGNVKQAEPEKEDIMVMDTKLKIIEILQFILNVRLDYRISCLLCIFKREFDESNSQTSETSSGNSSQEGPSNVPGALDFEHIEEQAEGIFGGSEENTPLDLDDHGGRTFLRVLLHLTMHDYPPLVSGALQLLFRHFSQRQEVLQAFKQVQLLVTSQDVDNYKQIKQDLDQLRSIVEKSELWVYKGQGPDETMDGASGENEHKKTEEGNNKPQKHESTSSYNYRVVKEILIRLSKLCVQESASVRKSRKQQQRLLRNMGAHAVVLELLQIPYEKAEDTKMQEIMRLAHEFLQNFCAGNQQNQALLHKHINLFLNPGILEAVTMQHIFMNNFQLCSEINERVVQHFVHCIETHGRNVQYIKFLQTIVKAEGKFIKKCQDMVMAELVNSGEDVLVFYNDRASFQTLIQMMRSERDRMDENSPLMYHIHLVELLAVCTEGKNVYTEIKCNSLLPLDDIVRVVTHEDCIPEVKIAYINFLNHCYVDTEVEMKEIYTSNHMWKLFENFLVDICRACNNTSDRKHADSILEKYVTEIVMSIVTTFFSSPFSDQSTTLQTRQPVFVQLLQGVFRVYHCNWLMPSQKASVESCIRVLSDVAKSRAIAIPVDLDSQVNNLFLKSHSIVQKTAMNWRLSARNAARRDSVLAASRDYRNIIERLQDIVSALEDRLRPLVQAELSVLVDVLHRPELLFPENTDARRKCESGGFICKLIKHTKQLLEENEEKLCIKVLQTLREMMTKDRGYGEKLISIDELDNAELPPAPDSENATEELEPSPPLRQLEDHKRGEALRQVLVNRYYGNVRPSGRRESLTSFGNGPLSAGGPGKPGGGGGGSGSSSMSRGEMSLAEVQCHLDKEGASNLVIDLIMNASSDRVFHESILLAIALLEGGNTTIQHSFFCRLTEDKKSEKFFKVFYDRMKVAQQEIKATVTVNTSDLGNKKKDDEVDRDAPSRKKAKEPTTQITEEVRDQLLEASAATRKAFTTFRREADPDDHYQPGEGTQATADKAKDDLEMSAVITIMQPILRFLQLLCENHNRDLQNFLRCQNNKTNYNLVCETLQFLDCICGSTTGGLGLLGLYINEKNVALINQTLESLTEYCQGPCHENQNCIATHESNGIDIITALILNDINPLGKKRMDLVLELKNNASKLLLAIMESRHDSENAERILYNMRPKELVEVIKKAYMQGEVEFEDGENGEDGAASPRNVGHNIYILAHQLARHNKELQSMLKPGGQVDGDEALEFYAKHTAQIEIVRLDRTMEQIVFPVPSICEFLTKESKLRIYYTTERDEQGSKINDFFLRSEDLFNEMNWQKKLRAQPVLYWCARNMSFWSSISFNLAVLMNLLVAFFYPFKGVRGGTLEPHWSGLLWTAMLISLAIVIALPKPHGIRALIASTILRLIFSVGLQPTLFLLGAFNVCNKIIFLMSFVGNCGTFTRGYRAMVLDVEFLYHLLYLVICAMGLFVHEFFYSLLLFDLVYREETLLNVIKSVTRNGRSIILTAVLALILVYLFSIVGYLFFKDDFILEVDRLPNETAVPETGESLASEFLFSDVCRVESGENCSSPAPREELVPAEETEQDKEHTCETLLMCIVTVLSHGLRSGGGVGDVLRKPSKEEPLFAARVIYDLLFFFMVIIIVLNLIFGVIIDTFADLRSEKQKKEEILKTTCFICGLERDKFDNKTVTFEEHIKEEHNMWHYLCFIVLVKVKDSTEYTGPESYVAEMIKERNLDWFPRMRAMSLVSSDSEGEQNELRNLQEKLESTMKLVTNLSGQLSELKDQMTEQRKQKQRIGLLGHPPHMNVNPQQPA
HA-hBD (IP3 ligand binding domain of human IP3R1 tagged with an HA epitope) (Q14643, form named): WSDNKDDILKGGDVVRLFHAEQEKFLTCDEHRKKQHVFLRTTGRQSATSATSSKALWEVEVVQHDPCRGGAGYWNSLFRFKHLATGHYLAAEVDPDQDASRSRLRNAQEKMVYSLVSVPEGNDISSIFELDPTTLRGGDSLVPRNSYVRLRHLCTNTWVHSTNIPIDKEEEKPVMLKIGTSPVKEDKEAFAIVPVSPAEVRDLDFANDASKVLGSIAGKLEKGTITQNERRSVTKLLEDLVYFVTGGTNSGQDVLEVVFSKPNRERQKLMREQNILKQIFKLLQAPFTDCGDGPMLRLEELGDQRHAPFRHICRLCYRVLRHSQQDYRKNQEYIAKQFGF

[3] = molecular target: HA-hBD (IP3 ligand binding domain of human IP3R1 tagged with an HA epitope) (human) (UniProt Q14643); assay: co-immunoprecipitation with anti-HA antibody, transfected HeLa cells, Western blot

- binding [1]: binds
B1: endogenous protein Bcl-2 L10/Nrh (in cells) (protein, human, UniProt Q9HD36 1-204, looked up)
chain: T1 sequence (looked up)

- binding [2]: binds
- binding [3]: binds
B2: Flag-Nrh (human Bcl-2 L10/Nrh protein tagged with a Flag epitope) (protein, UniProt Q9HD36 1-204, looked up, not shown: small tags and cut ends)
chain: T1 sequence (looked up)
